Test results taken from US20220268787A1.
These are yes or no findings as the source states them, for the method shown. Some entries that bind do so weakly or less than the wild type.

What was measured:
[1] = target: T1, WRS (tryptophanyl-tRNA synthetase) protein, full-length (1-471) (human) (UniProt P23381); assay: indirect ELISA, antigen coated at 1 µg/ml, antibody at 500 ng/ml
T1 sequence: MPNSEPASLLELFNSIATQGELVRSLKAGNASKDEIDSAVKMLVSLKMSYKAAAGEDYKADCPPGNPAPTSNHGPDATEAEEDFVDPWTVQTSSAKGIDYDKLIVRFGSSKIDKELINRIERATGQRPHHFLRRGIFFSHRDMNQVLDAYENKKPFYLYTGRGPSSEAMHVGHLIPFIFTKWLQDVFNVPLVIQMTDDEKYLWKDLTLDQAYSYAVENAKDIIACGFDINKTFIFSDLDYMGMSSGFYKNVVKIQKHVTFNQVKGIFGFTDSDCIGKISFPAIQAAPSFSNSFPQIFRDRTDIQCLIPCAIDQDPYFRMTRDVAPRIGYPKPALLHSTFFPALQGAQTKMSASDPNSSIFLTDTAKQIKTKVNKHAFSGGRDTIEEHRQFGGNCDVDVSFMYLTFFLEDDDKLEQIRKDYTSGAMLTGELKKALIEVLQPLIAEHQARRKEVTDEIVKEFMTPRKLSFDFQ

[2] = target: T1, WRS (tryptophanyl-tRNA synthetase) protein, full-length (1-471) (human); assay: Western blotting of recombinant WRS and its fragments
[3] = target: T1, WRS (tryptophanyl-tRNA synthetase) protein, full-length (1-471) (human); assay: indirect ELISA on coated full-length WRS

Measured: binding

B1: 4D10G6 monoclonal antibody (antibody, V domains shown)
VH: EFQLQQSGPELVKPGASVKISCKASGYAFIDYNMNWVKQSNGKSLEWIGVINPNYGTIRYNQKFKGKATLTVDQSSSTAYMQLNSLTSEDSAVYYCAGLLRGYYAMDYWGQGTSVTVSS
VL: QAVVTQESALTTSPGETVTLTCRSSTGAVTTSNYANWVQEKPDHLFTGLIGGTNNRAPGVPARFSGSLIGDKAALTITGAQTEDEAIYFCVLWYSNHWVFGGGTKLTVL
binds: all assays above
